Assay results from publication PMC8599447.
No constants are given. Whether binding was seen depends on the method and setting. In cells and extracts the contact can be indirect. Some entries that bind do so weakly or less than the wild type. Sequences can lack the tags named with a protein.

T1: GST-SREBP2N fusion protein (1-485aa of SREBP2) (UniProt Q12772)
T1 sequence: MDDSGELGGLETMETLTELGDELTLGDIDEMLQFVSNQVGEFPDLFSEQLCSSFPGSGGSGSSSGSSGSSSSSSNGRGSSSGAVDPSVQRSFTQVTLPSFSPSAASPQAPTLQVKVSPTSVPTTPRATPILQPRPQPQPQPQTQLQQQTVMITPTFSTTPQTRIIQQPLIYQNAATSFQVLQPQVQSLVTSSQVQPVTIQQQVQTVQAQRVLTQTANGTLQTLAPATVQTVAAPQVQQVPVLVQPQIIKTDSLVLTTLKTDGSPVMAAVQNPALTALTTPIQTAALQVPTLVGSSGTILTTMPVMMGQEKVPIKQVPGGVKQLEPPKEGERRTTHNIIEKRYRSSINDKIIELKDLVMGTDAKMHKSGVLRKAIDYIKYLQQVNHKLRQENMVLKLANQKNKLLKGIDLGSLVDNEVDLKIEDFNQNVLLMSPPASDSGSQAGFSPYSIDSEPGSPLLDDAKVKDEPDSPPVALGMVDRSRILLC

T2: Flag-TFCP2 (transcription factor CP2) (UniProt Q12800)
T2 sequence: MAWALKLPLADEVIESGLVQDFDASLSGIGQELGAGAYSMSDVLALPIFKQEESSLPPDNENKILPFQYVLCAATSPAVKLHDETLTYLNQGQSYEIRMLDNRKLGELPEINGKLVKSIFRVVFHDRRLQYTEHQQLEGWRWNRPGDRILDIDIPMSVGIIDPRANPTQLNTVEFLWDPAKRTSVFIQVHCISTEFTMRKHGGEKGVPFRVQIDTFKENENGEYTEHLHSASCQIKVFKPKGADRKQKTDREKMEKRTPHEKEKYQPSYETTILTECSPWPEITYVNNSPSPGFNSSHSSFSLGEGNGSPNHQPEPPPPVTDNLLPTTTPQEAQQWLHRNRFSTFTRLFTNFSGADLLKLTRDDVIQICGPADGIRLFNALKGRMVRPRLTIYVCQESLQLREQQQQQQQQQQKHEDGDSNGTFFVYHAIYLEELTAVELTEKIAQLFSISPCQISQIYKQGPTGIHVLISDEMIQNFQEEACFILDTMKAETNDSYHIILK


How the values were obtained:
[1] = biological target: T1, GST-SREBP2N fusion protein (1-485aa of SREBP2); assay: pull-down; RIPA cell lysate mixed with 10 ug GST-SREBP2N fusion protein overnight at 4°C, Sepharose 4B beads 4 hours, washed with RIPA buffer, western blot; only the target purified
[2] = biological target: T2, Flag-TFCP2 (transcription factor CP2); assay: co-IP; cells transfected with Flag-TFCP2 and HA-SREBP2(N) plasmids, 48 hours; RIPA lysate, primary antibody overnight at 4°C, Protein A/G agarose beads, western blot

| binding [1] | binding [2] | Binder |
| --- | --- | --- |
| binds | – | TFCP2, endogenously expressed (protein, UniProt Q12800 1-502) MAWALKLPLADEVIESGLVQDFDASLSGIGQELGAGAYSMSDVLALPIFKQEESSLPPDNENKILPFQYVLCAATSPAVKLHDETLTYLNQGQSYEIRMLDNRKLGELPEINGKLVKSIFRVVFHDRRLQYTEHQQLEGWRWNRPGDRILDIDIPMSVGIIDPRANPTQLNTVEFLWDPAKRTSVFIQVHCISTEFTMRKHGGEKGVPFRVQIDTFKENENGEYTEHLHSASCQIKVFKPKGADRKQKTDREKMEKRTPHEKEKYQPSYETTILTECSPWPEITYVNNSPSPGFNSSHSSFSLGEGNGSPNHQPEPPPPVTDNLLPTTTPQEAQQWLHRNRFSTFTRLFTNFSGADLLKLTRDDVIQICGPADGIRLFNALKGRMVRPRLTIYVCQESLQLREQQQQQQQQQQKHEDGDSNGTFFVYHAIYLEELTAVELTEKIAQLFSISPCQISQIYKQGPTGIHVLISDEMIQNFQEEACFILDTMKAETNDSYHIILK |
| – | binds | HA-SREBP2(N) (domain or fragment, UniProt Q12772 1-485) MDDSGELGGLETMETLTELGDELTLGDIDEMLQFVSNQVGEFPDLFSEQLCSSFPGSGGSGSSSGSSGSSSSSSNGRGSSSGAVDPSVQRSFTQVTLPSFSPSAASPQAPTLQVKVSPTSVPTTPRATPILQPRPQPQPQPQTQLQQQTVMITPTFSTTPQTRIIQQPLIYQNAATSFQVLQPQVQSLVTSSQVQPVTIQQQVQTVQAQRVLTQTANGTLQTLAPATVQTVAAPQVQQVPVLVQPQIIKTDSLVLTTLKTDGSPVMAAVQNPALTALTTPIQTAALQVPTLVGSSGTILTTMPVMMGQEKVPIKQVPGGVKQLEPPKEGERRTTHNIIEKRYRSSINDKIIELKDLVMGTDAKMHKSGVLRKAIDYIKYLQQVNHKLRQENMVLKLANQKNKLLKGIDLGSLVDNEVDLKIEDFNQNVLLMSPPASDSGSQAGFSPYSIDSEPGSPLLDDAKVKDEPDSPPVALGMVDRSRILLC |
